The values that follow come from paper PMC9182292.

By UniProt entry, the sequences of proteins in these tests, tags left out.
UniProt P63104: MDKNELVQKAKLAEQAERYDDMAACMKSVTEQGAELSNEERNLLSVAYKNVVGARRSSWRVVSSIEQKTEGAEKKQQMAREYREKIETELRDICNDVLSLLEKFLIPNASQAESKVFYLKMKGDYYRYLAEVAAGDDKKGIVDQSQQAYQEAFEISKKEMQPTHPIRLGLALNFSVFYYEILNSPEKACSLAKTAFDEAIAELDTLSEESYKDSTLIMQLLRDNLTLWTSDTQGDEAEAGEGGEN
UniProt O88704: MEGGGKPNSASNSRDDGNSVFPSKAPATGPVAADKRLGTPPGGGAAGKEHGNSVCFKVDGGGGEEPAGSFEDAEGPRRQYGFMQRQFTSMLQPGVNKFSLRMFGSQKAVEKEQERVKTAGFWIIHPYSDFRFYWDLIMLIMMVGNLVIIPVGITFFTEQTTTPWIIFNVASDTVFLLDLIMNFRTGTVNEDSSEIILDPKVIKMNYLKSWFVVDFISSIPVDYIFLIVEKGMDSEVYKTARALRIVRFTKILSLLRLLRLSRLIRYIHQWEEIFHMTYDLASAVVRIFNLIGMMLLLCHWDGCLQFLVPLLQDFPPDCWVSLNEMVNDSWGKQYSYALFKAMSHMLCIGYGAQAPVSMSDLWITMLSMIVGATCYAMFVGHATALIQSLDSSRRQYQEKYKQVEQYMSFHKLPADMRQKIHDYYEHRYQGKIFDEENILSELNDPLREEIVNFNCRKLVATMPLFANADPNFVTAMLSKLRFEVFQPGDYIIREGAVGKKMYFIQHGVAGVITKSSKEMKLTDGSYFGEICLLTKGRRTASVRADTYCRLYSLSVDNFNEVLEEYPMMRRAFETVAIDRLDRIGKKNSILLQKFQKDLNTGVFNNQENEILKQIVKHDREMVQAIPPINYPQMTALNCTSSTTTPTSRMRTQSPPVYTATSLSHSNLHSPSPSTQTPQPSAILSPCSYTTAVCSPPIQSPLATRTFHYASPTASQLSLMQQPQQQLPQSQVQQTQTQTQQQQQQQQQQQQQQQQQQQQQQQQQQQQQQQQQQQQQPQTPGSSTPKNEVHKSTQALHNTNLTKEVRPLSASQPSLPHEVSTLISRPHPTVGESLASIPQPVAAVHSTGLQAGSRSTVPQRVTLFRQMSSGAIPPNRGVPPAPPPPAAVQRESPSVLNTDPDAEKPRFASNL

These are yes or no findings as the source states them, for the method shown. Binding seen in cells or lysates may run through a third protein. Some results given as binding are weak or reduced against the parent protein; the word gives no strength.

This test concerns the target human 6His-14-3-3ζ (human) (UniProt P63104). Briefly: pull-down; 6His-14-3-3ζ immobilised on Ni-NTA resin (5 mg for brain, 0.5 mg for retina and HEK293 cells expressing full-length HCN1), lysate overnight at 4°C, 1% Triton X-100 in PBS with 25 mM imidazole; blot for HCN1; control: resin only; only the target purified.

In the case of “HCN1 (endogenous, mouse retina and whole brain) (from UniProt O88704 1-910)”, the binding result is on record as “binds”.
For the substance “full-length mouse HCN1 expressed in HEK293 cells (from UniProt O88704 1-910)”, the binding entry is “binds”.
